Experimental data published in the supplement of paper PMC4604168 (melanoma cell lines).
The other results are listed elsewhere or left out. Single values are uncertain, as repeats are few or missing.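 Imaging used 1,536-well plates; nuclei positive for cleaved PARP by antibody were divided by total DNA-stained nuclei to yield the apoptosis fraction. Doses for screening kept most cells viable, and cell lines differ markedly in resting and induced cleaved-PARP levels.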

Experiments:
Assay in all cases: cleaved PARP positive nuclei fraction relative to DMSO control; melanoma cells; higher = more apoptosis
Settings in all cases: library dose: low library concentration; 72 h
[1] = tested on: MZ2-MEL
[2] = tested on: MeWo
[3] = tested on: RPMI7951
[4] = tested on: RVH-421
[5] = tested on: SkMel28
[6] = tested on: SkMel2
[7] = tested on: SkMel30
[8] = tested on: SkMel5
[9] = tested on: UACC257
[10] = tested on: UACC62

CCCCCCCCc1ccc(CCC(N)(CO)CO)cc1 [fingolimod] + O=C(Nc1cccc(Cl)c1)Nc1ncc(CCNc2ncnc3ccsc23)s1 [SNS314] (first compound 2 µM, partner dose 0.0008 µM)
cleaved PARP positive nuclei fraction [1]: 62.6%
cleaved PARP positive nuclei fraction [2]: 55.1%
cleaved PARP positive nuclei fraction [3]: 111%
cleaved PARP positive nuclei fraction [4]: 73.8%
cleaved PARP positive nuclei fraction [5]: 55.2%
cleaved PARP positive nuclei fraction [6]: 108%
cleaved PARP positive nuclei fraction [7]: 28%
cleaved PARP positive nuclei fraction [8]: 74.1%
cleaved PARP positive nuclei fraction [9]: 371%
cleaved PARP positive nuclei fraction [10]: 209%

CC(=O)O[C@@]12CO[C@@H]1C[C@H](O)[C@@]1(C)C(=O)[C@H](O)C3=C(C)[C@@H](OC(=O)[C@H](O)[C@@H](NC(=O)OC(C)(C)C)c4ccccc4)C[C@@](O)([C@@H](OC(=O)c4ccccc4)[C@H]21)C3(C)C [Docetaxel] + O=C(Nc1cccc(Cl)c1)Nc1ncc(CCNc2ncnc3ccsc23)s1 [SNS314] (first compound 0.0001 µM, partner dose 0.0008 µM)
cleaved PARP positive nuclei fraction [1]: 695%
cleaved PARP positive nuclei fraction [2]: 509%
cleaved PARP positive nuclei fraction [3]: 113%
cleaved PARP positive nuclei fraction [4]: 71.4%
cleaved PARP positive nuclei fraction [5]: 451%
cleaved PARP positive nuclei fraction [6]: 491%
cleaved PARP positive nuclei fraction [7]: 196%
cleaved PARP positive nuclei fraction [8]: 64.6%
cleaved PARP positive nuclei fraction [9]: 381%
cleaved PARP positive nuclei fraction [10]: 1000%

NC1(c2ccc(-c3nc4ccn5c(=O)[nH]nc5c4cc3-c3ccccc3)cc2)CCC1 + O=c1cc(-c2cccc3c2Sc2ccccc2S3)oc(N2CCOCC2)c1 [KU55933] (first compound 0.4 µM, partner dose 1 µM)
cleaved PARP positive nuclei fraction [1]: 28.1%
cleaved PARP positive nuclei fraction [2]: 64.1%
cleaved PARP positive nuclei fraction [3]: 67%
cleaved PARP positive nuclei fraction [4]: 287%
cleaved PARP positive nuclei fraction [5]: 347%
cleaved PARP positive nuclei fraction [6]: 161%
cleaved PARP positive nuclei fraction [7]: 46.4%
cleaved PARP positive nuclei fraction [8]: 309%
cleaved PARP positive nuclei fraction [9]: 118%
cleaved PARP positive nuclei fraction [10]: 262%

CCCCCCCCc1ccc(CCC(N)(CO)CO)cc1 [fingolimod] + C[C@@H]1CCN(C(=O)CC#N)C[C@@H]1N(C)c1ncnc2[nH]ccc12 [CP690550] (first compound 2 µM, partner dose 1 µM)
cleaved PARP positive nuclei fraction [1]: 83.2%
cleaved PARP positive nuclei fraction [2]: 70.2%
cleaved PARP positive nuclei fraction [3]: 123%
cleaved PARP positive nuclei fraction [4]: 56.5%
cleaved PARP positive nuclei fraction [5]: 224%
cleaved PARP positive nuclei fraction [6]: 116%
cleaved PARP positive nuclei fraction [7]: 68.9%
cleaved PARP positive nuclei fraction [8]: 140%
cleaved PARP positive nuclei fraction [9]: 103%
cleaved PARP positive nuclei fraction [10]: 107%

Cn1sc(=O)n(Cc2ccccc2)c1=O + O=C(CCCCCCC(=O)Nc1ccccc1)NO [vorinostat] (first compound 0.4 µM, partner dose 0.08 µM)
cleaved PARP positive nuclei fraction [1]: 161%
cleaved PARP positive nuclei fraction [2]: 143%
cleaved PARP positive nuclei fraction [3]: 165%
cleaved PARP positive nuclei fraction [4]: 55.5%
cleaved PARP positive nuclei fraction [5]: 138%
cleaved PARP positive nuclei fraction [6]: 122%
cleaved PARP positive nuclei fraction [7]: 62.5%
cleaved PARP positive nuclei fraction [8]: 74.5%
cleaved PARP positive nuclei fraction [9]: 189%
cleaved PARP positive nuclei fraction [10]: 118%

NC(=O)c1ccc(N(C(N)=O)c2c(F)cccc2F)nc1-c1ccc(F)cc1F + Cc1cc(N2CCOCC2)cc2[nH]c(-c3c(NC[C@@H](O)c4cccc(Cl)c4)cc[nH]c3=O)nc12 [BMS536924] (first compound 0.4 µM, partner dose 0.2 µM)
cleaved PARP positive nuclei fraction [1]: 37.5%
cleaved PARP positive nuclei fraction [2]: 33.2%
cleaved PARP positive nuclei fraction [3]: 81.4%
cleaved PARP positive nuclei fraction [4]: 85.2%
cleaved PARP positive nuclei fraction [5]: 131%
cleaved PARP positive nuclei fraction [6]: 58%
cleaved PARP positive nuclei fraction [7]: 243%
cleaved PARP positive nuclei fraction [8]: 78.7%
cleaved PARP positive nuclei fraction [9]: 200%
cleaved PARP positive nuclei fraction [10]: 38.8%

COc1ccc(C2=N[C@@H](c3ccc(Cl)cc3)[C@@H](c3ccc(Cl)cc3)N2C(=O)N2CCNC(=O)C2)c(OC(C)C)c1 [Nutlin-3] + O=C(O)c1ccc2c(c1)nc(Nc1cccc(Cl)c1)c1ccncc12 [CX4945] (first compound 0.1 µM, partner dose 0.4 µM)
cleaved PARP positive nuclei fraction [1]: 95.5%
cleaved PARP positive nuclei fraction [2]: 120%
cleaved PARP positive nuclei fraction [3]: 158%
cleaved PARP positive nuclei fraction [4]: 129%
cleaved PARP positive nuclei fraction [5]: 61.4%
cleaved PARP positive nuclei fraction [6]: 126%
cleaved PARP positive nuclei fraction [7]: 99.6%
cleaved PARP positive nuclei fraction [8]: 42.3%
cleaved PARP positive nuclei fraction [9]: 42.3%
cleaved PARP positive nuclei fraction [10]: 90.7%

C[C@]1(O)C[C@@H](c2nc(-c3ccc4ccc(-c5ccccc5)nc4c3)c3c(N)nccn32)C1 + c1cc(-c2cnn3cc(-c4ccc(OCCN5CCCCC5)cc4)cnc23)ccn1 [Dorsomorphin] (first compound 0.4 µM, partner dose 0.4 µM)
cleaved PARP positive nuclei fraction [1]: 64.9%
cleaved PARP positive nuclei fraction [2]: 51%
cleaved PARP positive nuclei fraction [3]: 202%
cleaved PARP positive nuclei fraction [4]: 139%
cleaved PARP positive nuclei fraction [5]: 43.2%
cleaved PARP positive nuclei fraction [6]: 66.8%
cleaved PARP positive nuclei fraction [7]: 40%
cleaved PARP positive nuclei fraction [8]: 361%
cleaved PARP positive nuclei fraction [9]: 188%
cleaved PARP positive nuclei fraction [10]: 61.9%

COc1ccc(C2=N[C@@H](c3ccc(Cl)cc3)[C@@H](c3ccc(Cl)cc3)N2C(=O)N2CCNC(=O)C2)c(OC(C)C)c1 [Nutlin-3] + Oc1cc(-c2nc(-c3ccccc3)[nH]c2-c2ccncc2)ccc1Cl [L779450] (first compound 0.1 µM, partner dose 0.2 µM)
cleaved PARP positive nuclei fraction [1]: 140%
cleaved PARP positive nuclei fraction [2]: 339%
cleaved PARP positive nuclei fraction [3]: 148%
cleaved PARP positive nuclei fraction [4]: 27%
cleaved PARP positive nuclei fraction [5]: 158%
cleaved PARP positive nuclei fraction [6]: 99.2%
cleaved PARP positive nuclei fraction [7]: 48.7%
cleaved PARP positive nuclei fraction [8]: 69.2%
cleaved PARP positive nuclei fraction [9]: 162%
cleaved PARP positive nuclei fraction [10]: 134%

CS(=O)(=O)c1ccc(C(=O)Nc2ccc(Cl)c(-c3ccccn3)c2)c(Cl)c1 [vismodegib] + O=C(CCCCCCC(=O)Nc1ccccc1)NO [vorinostat] (first compound 1 µM, partner dose 0.08 µM)
cleaved PARP positive nuclei fraction [1]: 112%
cleaved PARP positive nuclei fraction [2]: 50.2%
cleaved PARP positive nuclei fraction [3]: 39.3%
cleaved PARP positive nuclei fraction [4]: 82.4%
cleaved PARP positive nuclei fraction [5]: 50.6%
cleaved PARP positive nuclei fraction [6]: 133%
cleaved PARP positive nuclei fraction [7]: 154%
cleaved PARP positive nuclei fraction [8]: 232%
cleaved PARP positive nuclei fraction [9]: 153%
cleaved PARP positive nuclei fraction [10]: 169%
